Data as given in paper PMC6478693.
Results are given in words; binding and its absence hold for the method and conditions named. Binding seen in cells or lysates may run through a third protein. Some binding calls cover weakened binding; strength is not graded here.

Protein sequences, listed by entry. Tags and fused reporters are not part of them.
UniProt P15056: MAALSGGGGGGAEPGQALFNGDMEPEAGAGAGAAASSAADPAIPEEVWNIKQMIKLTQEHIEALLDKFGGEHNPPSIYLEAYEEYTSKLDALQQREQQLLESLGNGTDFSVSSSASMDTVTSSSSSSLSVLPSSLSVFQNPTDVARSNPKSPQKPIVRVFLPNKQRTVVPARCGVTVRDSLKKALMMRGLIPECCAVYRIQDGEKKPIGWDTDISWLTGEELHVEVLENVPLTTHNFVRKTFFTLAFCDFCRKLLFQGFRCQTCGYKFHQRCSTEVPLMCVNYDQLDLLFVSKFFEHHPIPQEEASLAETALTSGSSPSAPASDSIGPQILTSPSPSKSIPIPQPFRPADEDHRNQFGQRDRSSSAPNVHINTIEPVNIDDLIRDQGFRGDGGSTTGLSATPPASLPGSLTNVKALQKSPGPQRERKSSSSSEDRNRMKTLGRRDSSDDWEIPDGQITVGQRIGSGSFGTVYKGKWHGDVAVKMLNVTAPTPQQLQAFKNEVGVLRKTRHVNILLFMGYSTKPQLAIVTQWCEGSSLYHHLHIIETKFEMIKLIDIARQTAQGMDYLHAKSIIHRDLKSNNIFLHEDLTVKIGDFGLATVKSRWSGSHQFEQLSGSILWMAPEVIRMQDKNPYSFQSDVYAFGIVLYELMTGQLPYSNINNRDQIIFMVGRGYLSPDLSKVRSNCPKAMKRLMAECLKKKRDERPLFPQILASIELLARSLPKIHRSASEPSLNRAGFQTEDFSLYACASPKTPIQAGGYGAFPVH

Target: Flag-BRAF (wild type) (UniProt P15056)
Experiment: co-IP; in vitro: immunopurified Flag-BRAF proteins, unmodified or after in vitro ubiquitination, incubated with the partner; anti-Flag immunoprecipitates blotted (Fig. 6a, b, d; Supplementary Fig. 9a-f, i taken as the same comparison)

binding: binds
B1: KSR1 (Supplementary Fig. 9e) (protein, UniProt Q8IVT5 1-923)
chain: MDRAALRAAAMGEKKEGGGGGDAAAAEGGAGAAASRALQQCGQLQKLIDISIGSLRGLRTKCAVSNDLTQQEIRTLEAKLVRYICKQRQCKLSVAPGERTPELNSYPRFSDWLYTFNVRPEVVQEIPRDLTLDALLEMNEAKVKETLRRCGASGDECGRLQYALTCLRKVTGLGGEHKEDSSWSSLDARRESGSGPSTDTLSAASLPWPPGSSQLGRAGNSAQGPRSISVSALPASDSPTPSFSEGLSDTCIPLHASGRLTPRALHSFITPPTTPQLRRHTKLKPPRTPPPPSRKVFQLLPSFPTLTRSKSHESQLGNRIDDVSSMRFDLSHGSPQMVRRDIGLSVTHRFSTKSWLSQVCHVCQKSMIFGVKCKHCRLKCHNKCTKEAPACRISFLPLTRLRRTESVPSDINNPVDRAAEPHFGTLPKALTKKEHPPAMNHLDSSSNPSSTTSSTPSSPAPFPTSSNPSSATTPPNPSPGQRDSRFNFPAAYFIHHRQQFIFPVPSAGHCWKCLLIAESLKENAFNISAFAHAAPLPEAADGTRLDDQPKADVLEAHEAEAEEPEAGKSEAEDDEDEVDDLPSSRRPWRGPISRKASQTSVYLQEWDIPFEQVELGEPIGQGRWGRVHRGRWHGEVAIRLLEMDGHNQDHLKLFKKEVMNYRQTRHENVVLFMGACMNPPHLAIITSFCKGRTLHSFVRDPKTSLDINKTRQIAQEIIKGMGYLHAKGIVHKDLKSKNVFYDNGKVVITDFGLFGISGVVREGRRENQLKLSHDWLCYLAPEIVREMTPGKDEDQLPFSKAADVYAFGTVWYELQARDWPLKNQAAEASIWQIGSGEGMKRVLTSVSLGKEVSEILSACWAFDLQERPSFSLLMDMLEKLPKLNRRLSHPGHFWKSADINSSKVVPRFERFGLGVLESSNPKM
